A short description of one experiment: PubChem AID 1586. The note with it: yeast two-hybrid polyglutamine protein interaction, reporter readout; measured here: averaged growth delta OD.
Experiment [1] is described as follows: enhancers of SMN2 over SMN1 splicing, cell-based, SMN2/SMN1 luciferase reporters (AID 1598). The note with it: SMN2 vs SMN1 luciferase splicing reporter cells, at 10 µM; SMN1 luciferase ratio: measured here: SMN1 luciferase reporter average; SMN2 luciferase ratio: measured here: SMN2 luciferase reporter average, stronger effect = higher value. (In general: In a reporter assay the amount or activity of a reporter protein is the signal.)

The nature of experiment [2]: protection against mutant huntingtin cytotoxicity, PC12 cells, LDH release (AID 1610). The note with it: PC12 mutant huntingtin toxicity, final LDH at 4 uM, stronger effect = lower value.

This is one part of the list. Shown are side measurements of this screen, not its main read-out; they come without a call. For some assays here: Compounds called inactive in the main read-out are mostly missing here.

`Cc1cc(O)cc(C)c1Cl` displayed a signal change (36 h minus 0 h) in the experiment “PubChem AID 1586” of 0.067. Also, in experiment [1], the SMN1 luciferase ratio turned out to be 0.94 and the SMN2 luciferase ratio is 0.88. The same compound showed a normalised LDH release in experiment [2] of 1.01.
For `CCN1CCN(C(=O)NC(C(=O)N[C@@H]2C(=O)N3[C@@H]2SC(C)(C)[C@@H]3C(=O)O)c2ccccc2)C(=O)C1=O` (stereo partly specified) the same measures were -0.00855, 0.91, 0.91 and 0.587.
Turning to `CCCC(=O)Nc1ccc(OCC(O)CNC(C)C)c(C(C)=O)c1` (stereo unspecified), in the experiment “PubChem AID 1586”, the signal change (36 h minus 0 h) came to 0.214. In experiment [1], the SMN1 luciferase ratio came out at 1.53 and the SMN2 luciferase ratio was found to be 1.61. In experiment [2], this compound yielded a normalised LDH release of 1.53.
In the case of `C=C[C@@]1(C)CC(=O)[C@@]2(O)[C@](C)(O1)[C@@H](OC(C)=O)[C@@H](O)C1C(C)(C)CC[C@H](O)[C@@]12C` (stereo partly specified), the signal change (36 h minus 0 h) in the experiment “PubChem AID 1586” was 0.135. In addition, in experiment [1], the SMN1 luciferase ratio was 1.56 and the SMN2 luciferase ratio turned out to be 1.56. In experiment [2], this compound registered a normalised LDH release of 0.824.
The compound `CN(C)CCCO[C@H]1[C@@H](C(O)CO)OC2OC(C)(C)O[C@@H]21` (stereo partly specified) showed a signal change (36 h minus 0 h) in “PubChem AID 1586” of 0.107. In experiment [1], the SMN1 luciferase ratio is 0.87 and the SMN2 luciferase ratio stood at 0.91. The compound also showed a normalised LDH release in experiment [2] of 0.298.
The compound `CCC1(c2ccccc2)C(=O)NCNC1=O` had a signal change (36 h minus 0 h) in “PubChem AID 1586” of 0.189. In experiment [1], the SMN1 luciferase ratio turned out to be 0.82 and the SMN2 luciferase ratio amounted to 0.78. In experiment [2], this compound showed a normalised LDH release of 0.97.
For `CC12CCC3c4ccc(OCc5ccccc5)cc4CCC3C1C[C@@H](O)[C@@H]2O` (stereo partly specified) the same measures were 0.02, 0.42, 0.46 and 1.37.
In the same order, the values of `O=C1NC(=O)C(c2ccccc2)(c2ccccc2)N1` are 0.124, 0.91, 0.84 and 0.953.
In the same order, the values of `CN1CCN(CCC=C2c3ccccc3Sc3ccc(S(=O)(=O)N(C)C)cc32)CC1` are 0.102, 1, 0.96 and 0.403.
In the experiment “PubChem AID 1586”, `CC(COc1ccccc1)N(CCCl)Cc1ccccc1` (stereo unspecified) came in with a signal change (36 h minus 0 h) of 0.11. Moreover, in experiment [1], the SMN1 luciferase ratio worked out at 1.06 and the SMN2 luciferase ratio was found to be 1.03. Further, the normalised LDH release in experiment [2] stood at 0.974.
For `CNCCC=C1c2ccccc2CCc2ccccc21` the same measures were 0.0956, 0.88, 0.68 and 0.964.
`c1coc(CNc2ncnc3nc[nH]c23)c1` registered a signal change (36 h minus 0 h) in “PubChem AID 1586” of 0.13. Besides, in experiment [1], the SMN1 luciferase ratio was 0.85 and the SMN2 luciferase ratio worked out at 0.84. The normalised LDH release in experiment [2] turned out to be 0.489.
As for `C#C[C@]1(O)CCC2C3CCC4=C(CCC(=O)C4)C3CC[C@@]21C` (stereo partly specified), the signal change (36 h minus 0 h) in “PubChem AID 1586” was 0.203. Further, in experiment [1], the SMN1 luciferase ratio is 0.9 and the SMN2 luciferase ratio turned out to be 0.89. Further, in experiment [2], the normalised LDH release was 1.
In the same order, the values of `C=CC[C@@H]1/C=C(\C)C[C@H](C)C[C@H](OC)[C@H]2O[C@@](O)(C(=O)C(=O)N3CCCC[C@H]3C(=O)O[C@H](/C(C)=C/[C@@H]3CC[C@@H](O)[C@H](OC)C3)[C@H](C)[C@@H](O)CC1=O)[C@H](C)C[C@@H]2OC` are 0.121, 1.04, 1.09 and 0.934.
In the same order, the values of `Nc1ccc(S(N)(=O)=O)cc1` are 0.192, 0.93, 0.84 and 0.826.
In the same order, the values of `Nc1ccc(S(=O)(=O)Nc2nccs2)cc1` are 0.047, 0.95, 0.87 and 0.732.
Regarding `C[C@]12CCC3c4ccc(O)cc4CCC3C1CC[C@@H]2O` (stereo partly specified), the signal change (36 h minus 0 h) in “PubChem AID 1586” was found to be 0.0328. Also, in experiment [1], the SMN1 luciferase ratio was found to be 0.89 and the SMN2 luciferase ratio is 0.83. For the same compound, the normalised LDH release in experiment [2] came out at 0.436.
In the same order, the values of `CN1C(C(=O)Nc2ccccn2)=C(O)c2sccc2S1(=O)=O` are 0.185, 0.91, 0.93 and 0.845.
In the same order, the values of `NC(Cn1ccc(=O)c(O)c1)C(=O)O` (stereo unspecified) are 0.21, 0.84, 0.8 and 0.532.
For `Cc1ccccc1OCC(O)CO` (stereo unspecified) the same measures were 0.0469, 0.86, 0.81 and 0.815.
`C[C@@H]1CC2C3CCC4=CC(=O)C=C[C@]4(C)[C@@]3(F)[C@@H](O)C[C@]2(C)[C@@]1(O)C(=O)CO` (stereo partly specified) displayed a signal change (36 h minus 0 h) in the experiment “PubChem AID 1586” of 0.0527. Also, in experiment [1], the SMN1 luciferase ratio was 0.89 and the SMN2 luciferase ratio came out at 0.98. In experiment [2], this compound registered a normalised LDH release of 0.476.
With `CC(=O)CC(c1ccccc1)c1c(O)c2ccccc2oc1=O` (stereo unspecified), the signal change (36 h minus 0 h) in the experiment “PubChem AID 1586” is 0.2. In experiment [1], the SMN1 luciferase ratio turned out to be 0.95 and the SMN2 luciferase ratio worked out at 0.89. The compound further yielded a normalised LDH release in experiment [2] of 0.995.
In turn, `CC12CC3CC(C)(C1)CC(N)(C3)C2` gave a signal change (36 h minus 0 h) in the experiment “PubChem AID 1586” of 0.0866. Further, in experiment [1], the SMN1 luciferase ratio stood at 0.82 and the SMN2 luciferase ratio was 1.01. Further, the normalised LDH release in experiment [2] worked out at 0.753.
In the same order, the values of `CC[N+](C)(C)c1cccc(O)c1` are 0.135, 0.94, 0.91 and 0.97.
In the same order, the values of `O=C(/C=C/C=C/c1ccc2c(c1)OCO2)N1CCCCC1` are 0.0359, 1.21, 1.17 and 0.974.
In the same order, the values of `CC1COc2c(N3CCN(C)CC3)c(F)cc3c(=O)c(C(=O)O)cn1c23` (stereo unspecified) are 0.0715, 0.6, 0.87 and 0.924.
Turning to `CC1=CC(=O)c2ccccc2C1=O`, in “PubChem AID 1586”, the signal change (36 h minus 0 h) came to 0.114. In addition, in experiment [1], the SMN1 luciferase ratio came out at 1.08 and the SMN2 luciferase ratio worked out at 1.13. In experiment [2], the normalised LDH release came to 0.418.
In the same order, the values of `NC1(C(=O)O)CCCC1` are 0.0781, 0.8, 0.88 and 0.979.
For `CC(=O)NCCCCCC(=O)O` the same measures were 0.128, 0.87, 0.84 and 0.589.
In the same order, the values of `C[C@]12CCC3c4ccc(O)cc4CCC3C1CC[C@@H]2OC(=O)CCC1CCCC1` (stereo partly specified) are 0.0312, 0.93, 0.94 and 0.972.
For the compound `CC(=O)Oc1ccccc1C(=O)O`, the signal change (36 h minus 0 h) in “PubChem AID 1586” is 0.151. For the same compound, in experiment [1], the SMN1 luciferase ratio was determined as 0.87 and the SMN2 luciferase ratio came to 0.89. Further, the normalised LDH release in experiment [2] was 0.684.
The compound `NC(=O)c1ncn([C@@H]2O[C@H](CO)[C@@H](O)[C@H]2O)n1` returned a signal change (36 h minus 0 h) in “PubChem AID 1586” of 0.291. In experiment [1], the SMN1 luciferase ratio is 1.04 and the SMN2 luciferase ratio amounted to 0.97. Moreover, the normalised LDH release in experiment [2] came to 0.75.
For `CSCCC(NC=O)C(=O)NC(C)C(=O)O` (stereo unspecified) the same measures were 0.15, 0.91, 0.89 and 0.71.
`CCc1nc(N)nc(N)c1-c1ccc(Cl)cc1` showed a signal change (36 h minus 0 h) in “PubChem AID 1586” of 0.106. Also, in experiment [1], the SMN1 luciferase ratio was found to be 0.53 and the SMN2 luciferase ratio was found to be 0.43. The compound also yielded a normalised LDH release in experiment [2] of 0.95.
Regarding `COC(=O)/C(=C1\OC(=O)C(c2ccccc2)C1=O)c1ccccc1` (stereo unspecified), the signal change (36 h minus 0 h) in the experiment “PubChem AID 1586” was 0.0674. In experiment [1], the SMN1 luciferase ratio amounted to 1.46 and the SMN2 luciferase ratio came to 1.39. In addition, the normalised LDH release in experiment [2] was determined as 1.01.
In the same order, the values of `CCN(CC)CCOc1ccc(/C(=C(\Cl)c2ccccc2)c2ccccc2)cc1` are 0.0834, 0.9, 0.87 and 0.938.
`Oc1cc(O)c2c(c1)O[C@H](c1ccc(O)c(O)c1)[C@@H](O)C2` showed a signal change (36 h minus 0 h) in “PubChem AID 1586” of 0.254. In experiment [1], the SMN1 luciferase ratio is 0.93 and the SMN2 luciferase ratio worked out at 0.82. Also, the normalised LDH release in experiment [2] stood at 0.956.
In turn, `CCOC(=O)c1ccc(N)cc1` had a signal change (36 h minus 0 h) in “PubChem AID 1586” of 0.207. In experiment [1], the SMN1 luciferase ratio was 1.25 and the SMN2 luciferase ratio worked out at 1.34. In experiment [2], this compound showed a normalised LDH release of 1.18.
For `CC(=O)N[C@@H](CC(C)C)C(=O)O` the same measures were 0.0868, 0.99, 0.85 and 0.885.
In the same order, the values of `Cc1cc(CC(=O)O)n(C)c1C(=O)c1ccc(Cl)cc1` are 0.194, 1.01, 0.88 and 1.42.
In turn, `CN1CC(=O)N=C1N` came in with a signal change (36 h minus 0 h) in the experiment “PubChem AID 1586” of 0.152. In experiment [1], the SMN1 luciferase ratio came to 0.92 and the SMN2 luciferase ratio turned out to be 0.83. For the same compound, in experiment [2], the normalised LDH release was 1.13.
In the same order, the values of `CC12CCC(=O)C=C1CCC1C2[C@@H](O)CC2(C)C1CC[C@]2(O)C(=O)COP(=O)(O)O` (stereo partly specified) are 0.0523, 0.43, 0.42 and 0.626.
On to `O=C1C[C@@H](c2ccc(O)cc2)Oc2cc(O)cc(O)c21`, for which the signal change (36 h minus 0 h) in the experiment “PubChem AID 1586” is 0.0469. For the same compound, in experiment [1], the SMN1 luciferase ratio was found to be 1.01 and the SMN2 luciferase ratio was 1. In experiment [2], this compound gave a normalised LDH release of 1.
For the compound `COc1ccc(OC)c(C(O)CNC(=O)CN)c1` (stereo unspecified), the signal change (36 h minus 0 h) in the experiment “PubChem AID 1586” is 0.225. Besides, in experiment [1], the SMN1 luciferase ratio amounted to 0.96 and the SMN2 luciferase ratio turned out to be 0.91. For the same compound, the normalised LDH release in experiment [2] came out at 1.59.

The values above are taken from PubChem BioAssay.
